PubChem BioAssay AID1259425 | University of Nebraska Medical Center – 2018
Test: 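Find knockdowns that reproduce the gene expression pattern seen when KSR1 is lost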 (primary screen). Cells: HCT116 human colon cancer cells. Knock-down reagent: siRNA pool against human genes, 50 nM siRNA. Detection: 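mRNA of six signature genes measured together by branched-DNA assay after 50 nM siRNA pool, blank removed, divided by geometric mean of two housekeeping genes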. Scale: BNIP3L mRNA: higher = more BNIP3L transcript after knockdown.
In all, the deposit lists about 14,000 reagents; below is an unselected part. Not all columns of the deposit are shown. Not given: the time to read-out.

After knock-down of TRIM56 [SID364003528], the screen gave BNIP3L mRNA, set 1 = 0.114.
RPL23 [SID363992261] scored BNIP3L mRNA, set 1 = 0.451.
PCDHA8 [SID364001238] showed BNIP3L mRNA, set 1 = 0.0453.
Against PTGIS [SID363992245] the deposit lists BNIP3L mRNA, set 1 = 0.106.
Knock-down of SLC22A12 [SID364004617] resulted in: BNIP3L mRNA, set 1 = 0.0765.
HMOX1 [SID363993338] showed BNIP3L mRNA, set 1 = 0.0885.
With knock-down of VPS26A [SID363995845] the results were BNIP3L mRNA, set 1 = 0.0328.
Knock-down of TP53TG3 [SID363999447] resulted in: BNIP3L mRNA, set 1 = 0.0866.
For NGB [SID364002132] the deposit lists BNIP3L mRNA, set 1 = 0.0674.
After knock-down of UBQLN1 [SID363998517] the results were BNIP3L mRNA, set 1 = 0.0798.
Knock-down of BBS9 [SID363998864] gave: BNIP3L mRNA, set 1 = 0.215.
SCARF2 [SID364004768] showed BNIP3L mRNA, set 1 = 0.0884.

A stretch of the results above:
PCDHA8 [SID364001238] — BNIP3L mRNA, set 1 = 0.0453
PTGIS [SID363992245] — BNIP3L mRNA, set 1 = 0.106
